Assay results: the supplement of paper PMC6078165

Tested on: HCC1143
Assay: relative JC-1 red fluorescence (viability) vs pre-drug, coculture with fibroblast (fraction); higher = more viable cancer cells
Protocol: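 JC-1 labelled TNBC cells cocultured 1:1 (1,500 cells each) with CellTrace Violet stained primary or stromal fibroblasts in 384-well plates in FluoroBrite medium, treated with one of 42 anticancer drugs at 0.1, 1, 10 or 100 uM. JC-1 red fluorescence (mitochondrial integrity in cancer cells only) was read by plate reader every 8 h for 72 h. Values are normalised to each well's pre-drug value. The stock of one drug was tenfold lower, so its dose labels may be too high.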

CO[C@H]1C[C@@H]2CC[C@@H](C)[C@@](O)(O2)C(=O)C(=O)N2CCCC[C@H]2C(=O)O[C@H]([C@H](C)C[C@@H]2CC[C@@H](O)[C@H](OC)C2)CC(=O)[C@H](C)/C=C(\C)[C@@H](O)[C@@H](OC)C(=O)[C@H](C)C[C@H](C)/C=C/C=C/C=C/1C [Rapamycin]
relative JC-1 red fluorescence
Details	8 h	16 h	24 h	32 h	40 h	48 h	56 h	64 h	72 h
0.1 µM, coculture fibroblast: C12385	0.84	0.76	0.67	0.614	0.543	0.492	0.453	0.411	0.397
0.1 µM, coculture fibroblast: H6013	0.749	0.683	0.653	0.63	0.577	0.584	0.559	0.554	0.519
0.1 µM, coculture fibroblast: H6019	0.793	0.727	0.68	0.619	0.596	0.585	0.558	0.543	0.525
0.1 µM, coculture fibroblast: H6076	0.794	0.814	0.752	0.679	0.6365	0.6144	0.577	0.5549	0.5587
0.1 µM, coculture fibroblast: H6231	0.825	0.854	0.795	0.646	0.684	0.652	0.614	0.579	0.56
0.1 µM, coculture fibroblast: HADF	0.726	0.673	0.65	0.662	0.5492	0.533	0.505	0.484	0.492
0.1 µM, coculture fibroblast: HCFa	0.764	0.672	0.629	0.616	0.514	0.484	0.448	0.409	0.411
0.1 µM, coculture fibroblast: HCPF	0.845	0.8475	0.793	0.724	0.714	0.677	0.636	0.6	0.6
0.1 µM, coculture fibroblast: HHSteC	0.827	0.7627	0.733	0.695	0.612	0.593	0.549	0.524	0.487
0.1 µM, coculture fibroblast: HMF	0.809	0.848	0.79	0.703	0.712	0.684	0.651	0.609	0.58
0.1 µM, coculture fibroblast: HPFa	0.9009	0.798	0.768	0.6743	0.616	0.5965	0.553	0.522	0.494
0.1 µM, coculture fibroblast: HUF	0.856	0.799	0.736	0.652	0.613	0.59	0.554	0.53	0.517
0.1 µM, coculture fibroblast: Hs5	0.8348	0.9158	0.8448	0.784	0.72	0.679	0.633	0.598	0.575
0.1 µM, coculture fibroblast: Hs27A	0.657	0.556	0.519	0.548	0.417	0.406	0.37	0.347	0.356
0.1 µM, coculture fibroblast: Hs343T	0.8164	0.867	0.813	0.71956	0.695	0.658	0.603	0.578	0.543
0.1 µM, coculture fibroblast: WS1	0.8296	0.762	0.7036	0.606	0.542	0.4925	0.445	0.4164	0.394
1 µM, coculture fibroblast: C12385	0.8548	0.823	0.782	0.727	0.665	0.631	0.598	0.562	0.546
1 µM, coculture fibroblast: H6013	0.738	0.661	0.631	0.621	0.542	0.533	0.498	0.491	0.485
1 µM, coculture fibroblast: H6019	0.827	0.77	0.728	0.67	0.625	0.605	0.582	0.567	0.547
1 µM, coculture fibroblast: H6076	0.7962	0.844	0.825	0.763	0.739	0.723	0.698	0.68	0.688
1 µM, coculture fibroblast: H6231	0.8165	0.819	0.765	0.68	0.671	0.641	0.618	0.591	0.581
1 µM, coculture fibroblast: HADF	0.748	0.724	0.711	0.729	0.65	0.64	0.62	0.601	0.608
1 µM, coculture fibroblast: HCFa	0.761	0.712	0.684	0.671	0.579	0.554	0.511	0.485	0.471
1 µM, coculture fibroblast: HCPF	0.7833	0.867	0.822	0.659	0.716	0.668	0.635	0.607	0.595
1 µM, coculture fibroblast: HHSteC	0.844	0.786	0.771	0.749	0.663	0.634	0.586	0.562	0.533
1 µM, coculture fibroblast: HMF	0.803	0.894	0.85	0.721	0.7542	0.713	0.674	0.641	0.622
1 µM, coculture fibroblast: HPFa	0.987	0.96863	0.9454	0.846	0.808	0.777	0.726	0.7	0.678
1 µM, coculture fibroblast: HUF	0.871	0.819	0.777	0.699	0.656	0.63	0.59	0.567	0.542
1 µM, coculture fibroblast: Hs5	0.847	0.89	0.8452	0.7945	0.732	0.687	0.661	0.634	0.628
1 µM, coculture fibroblast: Hs27A	0.703	0.644	0.618	0.652	0.518	0.515	0.481	0.465	0.467
1 µM, coculture fibroblast: Hs343T	0.8156	0.93	0.893	0.756	0.78	0.74	0.687	0.658	0.643
1 µM, coculture fibroblast: WS1	0.856	0.801	0.748	0.663	0.608	0.563	0.527	0.504	0.485
10 µM, coculture fibroblast: C12385	0.745	0.719	0.708	0.673	0.637	0.629	0.611	0.581	0.565
10 µM, coculture fibroblast: H6013	0.667	0.607	0.627	0.68	0.644	0.66	0.643	0.638	0.64
10 µM, coculture fibroblast: H6019	0.702	0.628	0.625	0.602	0.595	0.585	0.562	0.548	0.546
10 µM, coculture fibroblast: H6076	0.7202	0.82	0.804	0.729	0.755	0.725	0.683	0.66	0.662
10 µM, coculture fibroblast: H6231	0.708	0.865	0.851	0.634	0.767	0.724	0.688	0.649	0.616
10 µM, coculture fibroblast: HADF	0.621	0.555	0.577	0.627	0.537	0.539	0.522	0.51	0.537
10 µM, coculture fibroblast: HCFa	0.6807	0.5977	0.604	0.651	0.599	0.606	0.588	0.572	0.576
10 µM, coculture fibroblast: HCPF	0.791	0.904	0.873	0.795	0.96	0.902	0.853	0.799	0.748
10 µM, coculture fibroblast: HHSteC	0.718	0.683	0.728	0.744	0.695	0.723	0.716	0.724	0.705
10 µM, coculture fibroblast: HMF	0.7032	0.8306	0.8	0.69	0.764	0.743	0.706	0.684	0.651
10 µM, coculture fibroblast: HPFa	0.7934	0.7549	0.781	0.746	0.6975	0.69	0.644	0.611	0.58
10 µM, coculture fibroblast: HUF	0.772	0.708	0.643	0.573	0.529	0.515	0.471	0.45	0.425
10 µM, coculture fibroblast: Hs5	0.723	0.819	0.809	0.772	0.73	0.689	0.651	0.622	0.618
10 µM, coculture fibroblast: Hs27A	0.555	0.485	0.498	0.556	0.452	0.458	0.432	0.411	0.432
10 µM, coculture fibroblast: Hs343T	0.737	0.859	0.854	0.743	0.76	0.704	0.63292	0.5875	0.54744
10 µM, coculture fibroblast: WS1	0.734	0.699	0.716	0.699	0.674	0.66	0.629	0.6074	0.586
100 µM, coculture fibroblast: C12385	0.6385	0.511	0.373	0.255	0.209	0.164	0.129	0.149	0.167
100 µM, coculture fibroblast: H6013	0.638	0.501	0.398	0.365	0.281	0.234	0.19445	0.187	0.149
100 µM, coculture fibroblast: H6019	0.7175	0.606	0.465	0.384	0.313	0.245	0.173	0.167	0.19
100 µM, coculture fibroblast: H6076	0.6224	0.63	0.532	0.443	0.369	0.318	0.265	0.237	0.257
100 µM, coculture fibroblast: H6231	0.782	0.8674	0.897	0.783	0.838	0.791	0.589	0.476	0.478
100 µM, coculture fibroblast: HADF	0.5757	0.524	0.442	0.453	0.348	0.287	0.245	0.18	0.115
100 µM, coculture fibroblast: HCFa	0.668	0.516	0.424	0.39	0.291	0.241	0.194	0.152	0.105
100 µM, coculture fibroblast: HCPF	0.651	0.711	0.702	0.601	0.604	0.53	0.429	0.35	0.353
100 µM, coculture fibroblast: HHSteC	0.725	0.587	0.475	0.398	0.317	0.26329	0.228	0.234	0.218
100 µM, coculture fibroblast: HMF	0.654	0.656	0.536	0.448	0.375	0.336	0.311	0.291	0.295
100 µM, coculture fibroblast: HPFa	0.818	0.603	0.4569	0.4581	0.332	0.24754	0.2343	0.2656	0.284
100 µM, coculture fibroblast: HUF	0.788	0.698	0.61	0.479	0.404	0.389	0.374	0.355	0.326
100 µM, coculture fibroblast: Hs5	0.7	0.6928	0.623	0.589	0.491	0.42	0.362	0.336	0.375
100 µM, coculture fibroblast: Hs27A	0.661	0.645	0.6	0.63	0.475	0.462	0.407	0.37	0.288
100 µM, coculture fibroblast: Hs343T	0.7	0.7922	0.767	0.7	0.646	0.574	0.492	0.443	0.4
100 µM, coculture fibroblast: WS1	0.721	0.643	0.5124	0.414	0.348	0.273	0.255	0.281	0.306

The reference is the same well before dosing, and untreated signal decays as well.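 Labels refer to human fibroblasts, largely primary: uterine (C12385, HUF), lung (H6013), bone (Hs27A), adrenal (HADF), skin (WS1), plus mammary HMF and breast cancer-associated Hs343T. Cancer lines are basal-like or mesenchymal-like triple-negative breast cancer. The paper counts as hits responses shifting over 3x the replicate standard deviation. The tissue of the other fibroblasts is not given here.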
